The supplement of paper PMC10735217
Where a name gives a salt, the structure may show the parent alone. The list shows a part of the results. This data set is noisy: repeats of one test often differ as much as different tests do.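 In a drug-repurposing library screen, luminescence reads luciferase driven by eight TEAD-binding elements, stably integrated into human kidney-derived cells. Compounds scoring over five robust Z scores above the plate mean are called hits.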

Tested on: HEK293A TEAD-LUC reporter
Assay: TEAD-luciferase reporter activity (YAP activation), robust Z score vs plate; higher = stronger YAP/TEAD activation
Settings: 24 h

SMILES: CS(=O)(=O)c1ccc(C2=C(c3ccc(F)cc3)C(=O)OC2)c(F)c1
- TEAD-luciferase reporter activity (compound concentration: 200 nM): inactive: -1.21
- TEAD-luciferase reporter activity (compound concentration: 2 uM): inactive: -0.429
- TEAD-luciferase reporter activity (compound concentration: 10 uM): inactive: 0.394

SMILES: CCCCCCCCCCCCCCCCSCC(COC)COP(=O)([O-])OCC[N+](C)(C)C (stereo not drawn) [Ilmofosine]
- TEAD-luciferase reporter activity (compound concentration: 200 nM): inactive: 4.16
- TEAD-luciferase reporter activity (compound concentration: 2 uM): inactive: -0.154
- TEAD-luciferase reporter activity (compound concentration: 10 uM): inactive: 2.44

SMILES: CCCC[C@H](CN(O)C=O)C(=O)N1CCC[C@H]1C(=O)Nc1ccc(F)c[n+]1[O-]
- TEAD-luciferase reporter activity (compound concentration: 200 nM): inactive: 0.127
- TEAD-luciferase reporter activity (compound concentration: 2 uM): inactive: -0.153
- TEAD-luciferase reporter activity (compound concentration: 10 uM): inactive: -0.681

SMILES: CC(C)CCCC(C)C1CCC2C3CCC4C[C@H](N5CC(OS(C)(=O)=O)C5)CC[C@]4(C)C3CC[C@]12C (stereo partly drawn)
- TEAD-luciferase reporter activity (compound concentration: 200 nM): inactive: -0.454
- TEAD-luciferase reporter activity (compound concentration: 2 uM): inactive: -0.584
- TEAD-luciferase reporter activity (compound concentration: 10 uM): inactive: 4.42

SMILES: CC1(C)C(=O)Nc2ccc(C3=NNC(=O)CC3)cc21
- TEAD-luciferase reporter activity (compound concentration: 200 nM): inactive: 0.145
- TEAD-luciferase reporter activity (compound concentration: 2 uM): inactive: 0.315
- TEAD-luciferase reporter activity (compound concentration: 10 uM): inactive: 0.062

SMILES: Cc1ccc2c(Cl)cc(Cl)c(O)c2n1
- TEAD-luciferase reporter activity (compound concentration: 200 nM): inactive: -0.421
- TEAD-luciferase reporter activity (compound concentration: 2 uM): inactive: 0.688
- TEAD-luciferase reporter activity (compound concentration: 10 uM): inactive: -1.24

SMILES: O=C(O)c1ccccc1Nc1cccc(C(F)(F)F)c1 [Flufenamic acid]
- TEAD-luciferase reporter activity (compound concentration: 200 nM): inactive: -1.02
- TEAD-luciferase reporter activity (compound concentration: 10 uM): inactive: 1.25

SMILES: O=C(O)c1ccccc1Nc1cccc(C(F)(F)F)c1
- TEAD-luciferase reporter activity (compound concentration: 2 uM): inactive: -1.85

SMILES: N[C@@H](C(=O)N[C@@H]1C(=O)N2C(C(=O)O)=C(CSc3c[nH]nn3)CS[C@H]12)c1ccc(O)cc1 [cefatrizine, Ausonia]
- TEAD-luciferase reporter activity (compound concentration: 2 uM): inactive: -0.642

SMILES: N[C@@H](C(=O)N[C@@H]1C(=O)N2C(C(=O)O)=C(CSc3c[nH]nn3)CS[C@H]12)c1ccc(O)cc1
- TEAD-luciferase reporter activity (compound concentration: 200 nM): inactive: -1.47
- TEAD-luciferase reporter activity (compound concentration: 10 uM): inactive: 2.44

SMILES: COc1cc2c(Nc3ccc(Cl)c(Cl)c3F)ncnc2cc1OCC1C[C@@H]2CN(C)C[C@@H]2C1 (stereo partly drawn) [tesevatinib, Kadmon Corporation]
- TEAD-luciferase reporter activity (compound concentration: 200 nM): inactive: -2.26
- TEAD-luciferase reporter activity (compound concentration: 2 uM): inactive: -1.59
- TEAD-luciferase reporter activity (compound concentration: 10 uM): inactive: -1.77

SMILES: COC(=O)CCN1CCN(c2cccc(SC(F)(F)F)c2)CC1 [phenylpiperazines]
- TEAD-luciferase reporter activity (compound concentration: 200 nM): inactive: 0.537
- TEAD-luciferase reporter activity (compound concentration: 2 uM): inactive: -1.01
- TEAD-luciferase reporter activity (compound concentration: 10 uM): inactive: 1.79

SMILES: C[S+](C)CCOC(=O)C(c1ccccc1)C1CCCCC1 (stereo not drawn)
- TEAD-luciferase reporter activity (compound concentration: 200 nM): inactive: 1.47
- TEAD-luciferase reporter activity (compound concentration: 2 uM): inactive: 1.68
- TEAD-luciferase reporter activity (compound concentration: 10 uM): inactive: -1.25

SMILES: CC1(C)Oc2ccc(OC(F)(F)F)cc2C(N2Cc3ccccc3C2=O)C1O (stereo not drawn)
- TEAD-luciferase reporter activity (compound concentration: 200 nM): inactive: 0.018
- TEAD-luciferase reporter activity (compound concentration: 2 uM): inactive: 0.544
- TEAD-luciferase reporter activity (compound concentration: 10 uM): inactive: 1.89

SMILES: CN1CCC(OC(=O)C(Oc2ccc(Cl)cc2)Oc2ccc(Cl)cc2)CC1
- TEAD-luciferase reporter activity (compound concentration: 200 nM): inactive: -1.12
- TEAD-luciferase reporter activity (compound concentration: 2 uM): inactive: -1.03
- TEAD-luciferase reporter activity (compound concentration: 10 uM): inactive: 2.31

SMILES: CCCCCCCCCCCCC(C#N)(CCCN(C)CCc1cccc(OC)c1)c1cccc(OC)c1 (stereo not drawn)
- TEAD-luciferase reporter activity (compound concentration: 200 nM): inactive: 2.12
- TEAD-luciferase reporter activity (compound concentration: 2 uM): inactive: -1.03
- TEAD-luciferase reporter activity (compound concentration: 10 uM): inactive: -1.45

SMILES: NCCN1CCN(c2cc(-c3ccccc3)c(C(F)(F)F)nn2)CC1
- TEAD-luciferase reporter activity (compound concentration: 2 uM): inactive: -1.11
- TEAD-luciferase reporter activity (compound concentration: 10 uM): active: 5.74

SMILES: C1=CN2CC(c3cccs3)N=C2S1 (stereo not drawn)
- TEAD-luciferase reporter activity (compound concentration: 200 nM): inactive: 0.248
- TEAD-luciferase reporter activity (compound concentration: 2 uM): inactive: 0.347
- TEAD-luciferase reporter activity (compound concentration: 10 uM): inactive: -1.62

SMILES: CC[C@](O)(c1nnc(NCc2ccc3c(-c4ccc(F)cc4)cc(=O)oc3c2)o1)C(F)(F)F [setileuton]
- TEAD-luciferase reporter activity (compound concentration: 200 nM): inactive: -2.89
- TEAD-luciferase reporter activity (compound concentration: 2 uM): inactive: -0.938
- TEAD-luciferase reporter activity (compound concentration: 10 uM): inactive: -0.286

SMILES: CC(=O)N[C@@H]1[C@@H](O[C@@H]2O[C@H](C(=O)O)[C@@H](O)[C@H](O)[C@H]2O)[C@@H](O)[C@@H](OS(=O)(=O)O)O[C@H]1O
- TEAD-luciferase reporter activity (compound concentration: 200 nM): inactive: -0.474
- TEAD-luciferase reporter activity (compound concentration: 10 uM): inactive: -0.214

SMILES: CC(/C=C/c1cccc(Oc2ccc(F)cc2)c1)N(O)C(N)=O (stereo not drawn)
- TEAD-luciferase reporter activity (compound concentration: 200 nM): inactive: -1.03
- TEAD-luciferase reporter activity (compound concentration: 2 uM): inactive: -1.58
- TEAD-luciferase reporter activity (compound concentration: 10 uM): inactive: -1.03

SMILES: CC(C)c1cccc2c1OC(C(C)C)C(=S)N2CC(=O)O (stereo not drawn)
- TEAD-luciferase reporter activity (compound concentration: 200 nM): inactive: -0.675
- TEAD-luciferase reporter activity (compound concentration: 2 uM): inactive: -1.06
- TEAD-luciferase reporter activity (compound concentration: 10 uM): inactive: -2.22

SMILES: C#Cc1cccc(Nc2ncnc3cc(OC)c(OCCCN4CCOCC4)cc23)c1
- TEAD-luciferase reporter activity (compound concentration: 200 nM): inactive: 0.0223
- TEAD-luciferase reporter activity (compound concentration: 2 uM): inactive: 1.18
- TEAD-luciferase reporter activity (compound concentration: 10 uM): inactive: -0.828

SMILES: O=C(NN1C(=O)[C@@H]2[C@@H]3C=C[C@@H]([C@H]4C[C@@H]34)[C@@H]2C1=O)c1ccc(C(F)(F)F)cc1 [tecovirimat]
- TEAD-luciferase reporter activity (compound concentration: 200 nM): inactive: -1.71
- TEAD-luciferase reporter activity (compound concentration: 2 uM): inactive: -1.03
- TEAD-luciferase reporter activity (compound concentration: 10 uM): inactive: -0.238

SMILES: O=C1c2c(O)cc(O)cc2O[C@@H](c2ccc(O)c(O)c2)[C@@H]1O [Taxifolin]
- TEAD-luciferase reporter activity (compound concentration: 200 nM): inactive: -0.834
- TEAD-luciferase reporter activity (compound concentration: 2 uM): inactive: 0.615
- TEAD-luciferase reporter activity (compound concentration: 10 uM): inactive: 0.79

SMILES: COc1cc(N)c(Cl)cc1C(=O)NCC1CCN(CCC(OC(N)=O)c2ccc(F)cc2)CC1 (stereo not drawn) [Relenopride hydrochloride]
- TEAD-luciferase reporter activity (compound concentration: 200 nM): inactive: 1.59
- TEAD-luciferase reporter activity (compound concentration: 2 uM): inactive: 0.279
- TEAD-luciferase reporter activity (compound concentration: 10 uM): inactive: 0.427

SMILES: C=C1CC/C=C(\C)CC[C@@H]2[C@@H]1CC2(C)C [beta-Caryophyllene]
- TEAD-luciferase reporter activity (compound concentration: 200 nM): inactive: -0.778
- TEAD-luciferase reporter activity (compound concentration: 2 uM): inactive: -0.847
- TEAD-luciferase reporter activity (compound concentration: 10 uM): inactive: -0.201
